Like-named read-outs stand apart in the source and are kept apart here. Results are given in words; binding and its absence hold for the method and conditions named. For part of these data: Binding seen in cells or lysates may run through a third protein. Some entries that bind do so weakly or less than the wild type. Tags and fused reporters may be left off the sequences shown.
How the values were obtained:
[1] = target: T1, ICE1-Myc (35S:ICE1-Myc stable transgenic Arabidopsis) (Arabidopsis) (UniProt Q9LSE2); experiment: co-IP
T1 sequence: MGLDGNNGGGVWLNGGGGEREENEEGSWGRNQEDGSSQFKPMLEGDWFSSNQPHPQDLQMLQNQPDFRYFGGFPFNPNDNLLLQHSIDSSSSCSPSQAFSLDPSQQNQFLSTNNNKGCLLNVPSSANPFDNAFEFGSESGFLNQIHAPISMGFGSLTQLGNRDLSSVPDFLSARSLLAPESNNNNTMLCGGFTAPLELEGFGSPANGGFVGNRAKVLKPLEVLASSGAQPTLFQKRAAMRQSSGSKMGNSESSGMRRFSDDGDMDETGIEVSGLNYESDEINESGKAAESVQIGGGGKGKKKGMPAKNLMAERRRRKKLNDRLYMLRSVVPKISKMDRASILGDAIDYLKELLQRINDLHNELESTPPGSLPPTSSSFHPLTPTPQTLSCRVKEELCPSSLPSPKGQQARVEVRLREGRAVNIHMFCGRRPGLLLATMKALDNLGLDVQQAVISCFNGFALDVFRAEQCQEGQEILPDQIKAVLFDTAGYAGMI

Sequences of proteins named here, by UniProt entry; tags and fusion partners are left off. A change or cut given only in a name is not applied to a line headed by its entry. Residues count along the entry.
UniProt P93002: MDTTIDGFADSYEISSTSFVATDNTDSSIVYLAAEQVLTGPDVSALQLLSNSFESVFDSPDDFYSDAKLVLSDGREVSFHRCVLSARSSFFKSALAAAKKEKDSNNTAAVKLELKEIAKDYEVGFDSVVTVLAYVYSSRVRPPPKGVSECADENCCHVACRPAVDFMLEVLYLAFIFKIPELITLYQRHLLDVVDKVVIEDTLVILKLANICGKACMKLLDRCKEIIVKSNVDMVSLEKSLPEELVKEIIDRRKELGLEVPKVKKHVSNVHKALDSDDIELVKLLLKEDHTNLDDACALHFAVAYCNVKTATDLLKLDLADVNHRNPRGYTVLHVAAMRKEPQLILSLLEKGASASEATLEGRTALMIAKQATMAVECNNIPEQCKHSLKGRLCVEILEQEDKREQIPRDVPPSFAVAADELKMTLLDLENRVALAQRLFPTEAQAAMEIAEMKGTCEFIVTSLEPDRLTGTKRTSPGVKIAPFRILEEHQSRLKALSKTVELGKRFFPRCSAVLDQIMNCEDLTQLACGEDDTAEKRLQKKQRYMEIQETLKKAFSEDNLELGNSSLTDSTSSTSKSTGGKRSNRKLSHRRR
NPR1^1-194-cYFP: residues 1-194 of P93002

[2] = target: T2, TGA3-YFP (35S::TGA3-YFP, pEarleyGate101) (Arabidopsis) (UniProt Q39234); experiment: co-IP
T2 sequence: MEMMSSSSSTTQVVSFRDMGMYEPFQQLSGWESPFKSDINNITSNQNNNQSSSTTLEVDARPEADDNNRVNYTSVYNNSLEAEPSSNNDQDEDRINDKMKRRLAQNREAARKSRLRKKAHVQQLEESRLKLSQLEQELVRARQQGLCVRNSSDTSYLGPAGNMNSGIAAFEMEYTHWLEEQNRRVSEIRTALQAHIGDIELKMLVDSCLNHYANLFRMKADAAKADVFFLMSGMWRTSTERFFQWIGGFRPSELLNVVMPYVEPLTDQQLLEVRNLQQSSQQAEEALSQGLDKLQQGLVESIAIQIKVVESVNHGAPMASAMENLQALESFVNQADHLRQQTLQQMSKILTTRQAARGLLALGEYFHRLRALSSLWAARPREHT

[3] = target: NPR1-YFP (35S::NPR1-YFP, pEarleyGate101) (Arabidopsis) (UniProt P93002); experiment: co-IP
[4] = target: T3, BD-TGA3 (full length, in pGBKT7) (Arabidopsis) (UniProt Q39234); experiment: two-hybrid
T3 sequence: T2 sequence

[5] = target: BD-NPR1 (Non-expresser of PR genes 1, full length, in pGBKT7) (Arabidopsis) (UniProt P93002); experiment: two-hybrid
[6] = target: T4, TGA7-cYFP (Arabidopsis) (UniProt Q93ZE2); experiment: split reporter
T4 sequence: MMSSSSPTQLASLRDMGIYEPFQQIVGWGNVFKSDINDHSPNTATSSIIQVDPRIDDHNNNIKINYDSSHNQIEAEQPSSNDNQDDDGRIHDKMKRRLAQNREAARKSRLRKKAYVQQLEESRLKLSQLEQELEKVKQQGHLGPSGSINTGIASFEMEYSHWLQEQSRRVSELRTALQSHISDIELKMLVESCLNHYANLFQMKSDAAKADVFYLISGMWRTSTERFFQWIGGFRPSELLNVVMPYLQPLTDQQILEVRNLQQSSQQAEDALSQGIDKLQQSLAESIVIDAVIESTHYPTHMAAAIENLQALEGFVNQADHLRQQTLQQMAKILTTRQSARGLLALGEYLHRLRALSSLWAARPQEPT

[7] = target: NPR1-cYFP (Arabidopsis) (UniProt P93002); experiment: split reporter
[8] = target: T5, TGA1-cYFP (Arabidopsis) (UniProt Q39237); experiment: split reporter
T5 sequence: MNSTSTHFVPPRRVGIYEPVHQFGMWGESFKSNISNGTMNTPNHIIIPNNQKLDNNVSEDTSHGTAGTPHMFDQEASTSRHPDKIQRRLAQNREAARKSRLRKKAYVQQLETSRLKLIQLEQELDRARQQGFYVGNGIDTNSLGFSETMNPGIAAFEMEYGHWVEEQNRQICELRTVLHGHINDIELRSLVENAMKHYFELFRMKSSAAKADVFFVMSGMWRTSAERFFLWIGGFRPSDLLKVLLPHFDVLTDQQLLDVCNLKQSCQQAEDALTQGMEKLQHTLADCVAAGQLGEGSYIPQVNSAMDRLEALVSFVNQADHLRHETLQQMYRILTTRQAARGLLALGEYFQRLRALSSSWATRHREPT

[9] = target: T6, TGA2-cYFP (Arabidopsis) (UniProt P43273); experiment: split reporter
T6 sequence: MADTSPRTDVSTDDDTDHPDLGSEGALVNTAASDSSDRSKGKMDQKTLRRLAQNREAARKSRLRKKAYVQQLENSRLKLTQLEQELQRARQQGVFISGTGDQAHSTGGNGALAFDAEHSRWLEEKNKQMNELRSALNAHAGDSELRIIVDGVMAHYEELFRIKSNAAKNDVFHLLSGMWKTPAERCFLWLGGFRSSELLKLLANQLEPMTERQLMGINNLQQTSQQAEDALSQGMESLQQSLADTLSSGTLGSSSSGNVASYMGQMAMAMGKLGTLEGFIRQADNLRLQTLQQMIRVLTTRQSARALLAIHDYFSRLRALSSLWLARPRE

[10] = target: NPR1^1-194-cYFP (Arabidopsis) (UniProt P93002); experiment: split reporter
[11] = target: T7, TGA3-cYFP (Arabidopsis) (UniProt Q39234); experiment: split reporter
T7 sequence: T2 sequence

[12] = target: NPR1-cYFP (Arabidopsis) (UniProt P93002); experiment: split reporter; remark: listed apart in the source
[13] = target: NPR1-cLUC (Arabidopsis) (UniProt P93002); experiment: split reporter
[14] = target: NPR1-cLUC (Arabidopsis) (UniProt P93002); experiment: split reporter; remark: listed apart in the source
[15] = target: T8, cLUC-TGA3 (Arabidopsis) (UniProt Q39234); experiment: split reporter
T8 sequence: T2 sequence

HA-NPR1 (35S:HA-NPR1 stable transgenic Arabidopsis) (from UniProt P93002 1-593)
binding [1]: binds

B1: ICE1-Myc (35S::ICE1-Myc, pGWB517, in protoplasts) (protein, UniProt Q9LSE2 1-494)
chain: T1 sequence
binding [2]: binds
binding [3]: binds

B2: AD-ICE1^261-494 (domain or fragment, UniProt Q9LSE2 261-494)
chain: DGDMDETGIEVSGLNYESDEINESGKAAESVQIGGGGKGKKKGMPAKNLMAERRRRKKLNDRLYMLRSVVPKISKMDRASILGDAIDYLKELLQRINDLHNELESTPPGSLPPTSSSFHPLTPTPQTLSCRVKEELCPSSLPSPKGQQARVEVRLREGRAVNIHMFCGRRPGLLLATMKALDNLGLDVQQAVISCFNGFALDVFRAEQCQEGQEILPDQIKAVLFDTAGYAGMI
binding [4]: binds
binding [5]: binds

B3: ICE1-nYFP (protein, UniProt Q9LSE2 1-494)
chain: T1 sequence
binding [6]: binds
binding [7]: binds
binding [8]: binds
binding [9]: binds
binding [10]: binds
binding [11]: binds
binding [12]: binds weakly

B4: ICE1-nLUC (protein, UniProt Q9LSE2 1-494)
chain: T1 sequence
binding [13]: binds weakly
binding [14]: binds
binding [15]: binds

B5: ICE1^261-494-nYFP (domain or fragment, UniProt Q9LSE2 261-494)
chain: B2 chain
binding [7]: binds

B6: AD-ICE1^1-260 (domain or fragment, UniProt Q9LSE2 1-260)
chain: MGLDGNNGGGVWLNGGGGEREENEEGSWGRNQEDGSSQFKPMLEGDWFSSNQPHPQDLQMLQNQPDFRYFGGFPFNPNDNLLLQHSIDSSSSCSPSQAFSLDPSQQNQFLSTNNNKGCLLNVPSSANPFDNAFEFGSESGFLNQIHAPISMGFGSLTQLGNRDLSSVPDFLSARSLLAPESNNNNTMLCGGFTAPLELEGFGSPANGGFVGNRAKVLKPLEVLASSGAQPTLFQKRAAMRQSSGSKMGNSESSGMRRFSD
binding [4]: no binding
binding [5]: no binding
